In article PMC11551190 one finds binding data, which are given here for one molecule.

Chains of the proteins cited; added tags and fusions are not shown.
UniProt P60880: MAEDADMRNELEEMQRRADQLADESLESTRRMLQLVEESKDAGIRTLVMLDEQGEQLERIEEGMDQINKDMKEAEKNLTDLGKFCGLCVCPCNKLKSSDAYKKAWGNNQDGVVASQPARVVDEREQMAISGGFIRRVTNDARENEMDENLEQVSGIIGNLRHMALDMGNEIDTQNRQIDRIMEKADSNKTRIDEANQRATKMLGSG

The assay has as its target SNAP25 (human (endogenous in HLFs)) (UniProt P60880). The assay can be described thus: co-IP; reciprocal immunoprecipitation from HLF lysate (IP lysis buffer with protease/phosphatase inhibitors), precleared with protein A/G PLUS-Agarose, primary antibodies and protein A/G PLUS-Agarose at 4 °C overnight, western blot.

Results are given in words; binding and its absence hold for the method and conditions named. In cells and extracts the contact can be indirect. Some binding calls cover weakened binding; strength is not graded here.

B1: STX11 (protein, UniProt O75558 1-287)
chain: MKDRLAELLDLSKQYDQQFPDGDDEFDSPHEDIVFETDHILESLYRDIRDIQDENQLLVADVKRLGKQNARFLTSMRRLSSIKRDTNSIAKAIKARGEVIHCKLRAMKELSEAAEAQHGPHSAVARISRAQYNALTLTFQRAMHDYNQAEMKQRDNCKIRIQRQLEIMGKEVSGDQIEDMFEQGKWDVFSENLLADVKGARAALNEIESRHRELLRLESRIRDVHELFLQMAVLVEKQADTLNVIELNVQKTVDYTGQAKAQVRKAVQYEEKNPCRTLCCFCCPCLK
As for B1, the binding result is recorded as “binds”.
